# Experimental data as given in patent US6928770B2, “Alternating layer non-edible foraging matrix configurations for crawling arthropods” (priority 1999, dated 2005).
# Some results were stated once for a whole list of compounds, not compound by compound.
# System: termites (Reticulitermes flavipes (Kollar))
# Assay: First experiment: test arena with three monitors, treated non-edible foraging matrix disc in one monitor
# Assay type: in vivo
# Text: Data from two sets of experiments are included. In the first set of experiments, a total of 3,000 termites were used (2,970 workers and 30 soldiers) in all three replicates. In the second set of experiments, 3,000 termites were used in 4 replicates and 1,400 termites (1,386 workers and 14 soldiers) were used in two replicates for a total of six replicates. Fewer termites from 2 colonies were used because we could not collect enough to complete the replicates if a total of 3000 termites were used. The termites (Reticulitermes flavipes (Kollar)) were field collected from field colonies, separated from debris, and held in the laboratory at the USDA (United States Department of Agriculture) for no more than 14 days before introduction into a test arena for each experimental block. Termites from a different colony were used for each replicate.
# The test arena consisted of Plexiglas sides (45 cm long, by 30 cm wide by 5.5 cm high) taped to a glass bottom (45 cm long, by 30 cm wide, by 0.6 cm high) with clear packing tape, manufactured by Crystal Clear, Manco Inc., Avon, Ohio. The Plexiglas sides were assembled by joining pieces with methylene chloride. […]
# In both experimental set ups, controls were treated with filtered and de-ionized water. The treated non-edible foraging matrix was air dried for 7 days and stored in sealed plastic bags until ready for use. […]
smiles,measurement,setting,value
"CCOCn1c(-c2ccc(Cl)cc2)c(C#N)c(Br)c1C(F)(F)F [Chlorfenapyr, chlorfenapyr]",Time after setup by which all termites in the arenas were killed,250 ppm chlorfenapyr,≤ 7 weeks
"N#Cc1nn(-c2c(Cl)cc(C(F)(F)F)cc2Cl)c(N)c1[S+]([O-])C(F)(F)F (centres unmarked) [Fipronil, fipronil]",Time after setup by which all termites in the arenas were killed,125 ppm fipronil,≤ 7 weeks
